Source: article PMC7201719
No constants are given. Whether binding was seen depends on the method and setting. Binding seen in cells or lysates may run through a third protein. Here binding means that the protein was enriched with, or labelled near, the bait; the list need not be complete.

B1: EF hand-containing protein 1 (protein, UniProt Q49B65 1-238)
chain: MASEELAQKLQRRLLLEESGAEAEGDEEEAAVSAPSETGEEERSCLTASAGAELSAKLARRHDINEGAAQPRRAAVFNPYTEFKEFSRRQIKDMERMFRLYDSGRDGYIDLMELKLMMEKLGAPQTHLGLKNMIKEVDEDFDGKLSFREFLLIFHKAAAGELEEDSGLLTLAKLSEIDVSIEGVKGAKNFFEAKVQALSSASKFEAEIRAEQDERKREEEERKHRRAAFRELKSAFTQ
B2: FERM, RhoGEF and pleckstrin domain-containing protein 1 (protein, UniProt F1P065 1-1046)
chain: MGETEQRPTAGSRLGAQENAGISTLEHGQKPPLTPPGKLISIKIQMLDDTQETFEVPQRAPGKVLHDAVCNHLNLVEGDYFGLEFPDHKKMMVWLDLLKPVMKQIRRPKHVVVKFVVKFFPPDHAQLQEELTRYLFALQVKQDLAQGRLTCNDTSTALLISHIVQSEIGDFDETIDREHLAKNKYIPQQEALEDKIMEFHRKHTGQTPAESDFQLLEIARRLEMYGIRLHPAKDREGTKINLAVANTGILVFQGHTKINAFNWAKVRKLSFKRKRFLIKLRPDVNSSFQDTLEFLMASRDFCKSFWKICVEHHAFFRLFEEPKPKPKPVLFSRGSSFRFSGRTQKQVLDYVKEGGHKKVQFERKHSKIRSIRSLTAQPSEQHAEVPKQSFQSSSFAYGDDSDAAAVQSCQQGKELKASTEDTGQHKSPSLKKSPKEGRKVDGAVVSAVEEEEEAATDRMQQNRPQSQQPSTAGSLTGSPHLSELSINSQGGPSVANMSLSPNLSPDAKQSSPLISPLLNDPSCIRTEEEEEVKKKRFPTEKAYFIAKEVATTERTYLKDLEVITSWFQSAVSKEDCMPETLKNLIFSNFEPLHKFHTGFLKEIEQRLALWEGRSNAHIKGGHQRIGDVMLKNIQGMKQLTIHLWKHNEILTELENGIKNSRKLETFCRDFELQKVCYLPLNTFLLRPLHRLMHYKQIMERLCKHYPPNHVDFRDSRAALAEITEMMAQLHGNMIKMENFQKLHELKKDLIGIDNLVIPGREFIRLGSLSKLSGKGLQQRMFFLFNDILLYTSRGLTASNQFKVHGHLPLYGMTIEDSEEEWGVPHCLTLRGQQQSIIVAASTRAEIDKWIEDIQMAIDLAEKSSDPVPELLASSPPDNKSPDETTVDQESEDDLSASRTSLERQSPHRGNTTVHVCWHRNTSVSMIDFSIAVENQLSGNLLRKFKNSNGWQKLWVVFTNFCMFFYKSHQDNHPLASLPLLGYSLTIPSESENIHKDYVFKLHFKSHVYYFRAESEYTFERWMEVIRSATSSALRTRALSHREPHTY
B3: Protein phosphatase 1 regulatory (protein, UniProt Q90623 1-1004)
chain: MKMADAKQKRNEQLKRWIGSETDLEPPVVKRKKTKVKFDDGAVFLAACSSGDTEEVLRLLERGADINYANVDGLTALHQACIDDNVDMVKFLVENGANINQPDNEGWIPLHAAASCGYLDIAEYLISQGAHVGAVNSEGDTPLDIAEEEAMEELLQNEVNRQGVDIEAARKEEERIMLRDARQWLNSGHINDVRHAKSGGTALHVAAAKGYTEVLKLLIQARYDVNIKDYDGWTPLHAAAHWGKEEACRILVENLCDMEAVNKVGQTAFDVADEDILGYLEELQKKQNLLHSEKREKKSPLIESTANLDNNQTQKTFKNKETLIMEQEKNASSIESLEHEKADEEEEGKKDESSCSSEEEEDDDSESEAETDKAKTLANANTTSTQSASMTAPSVAGGQGTPTSPLKKFPTSTTKVSPKEEERKDESPASWRLGLRKTGSYGALAEITASKEAQKEKDSAGVIRSASSPRLSSSLDNKEKEKDGKGTRLAYVAPTIPRRLASTSDIDEKENRDSSASSIRSGSSYARRKWEEDVKKNSLNEGPTSLNTSYQRSGSFGRRQDDLVSSNVPSTASTVTSSAGLQKTLPASANTTTKSTTGSTSAGVQSSTSNRLWAEDSTEKEKDSVPTAVTVPVAPSVVNAAATTTAMTTATSGTVSSTSEVRERRRSYLTPVRDEESESQRKARSRQARQSRRSTQGVTLTDLQEAEKTIGRSRSTRTREQENEEKEKEEKEKQDKEKQEEKKESETKDDDYRQRYSRTVEEPYHRYRPTSTSTSTSSTSSLSTSTSSLSSSSQLNRPNSLIGITSAYSRSGTKESEREGGKKEEEKEEDKSQPKSIRERRRPREKRRSTGVSFWTQDSDENEQEHQSDSEEGTNKKETQSDSLSRYDTGSLSVSSGDRYDSAQGRSGSQSYLEDRKPYCSRLEKEDSTDFKKLYEQILAENEKLKAQLHDTNMELTDLKLQLEKTTQRQERFADRSLLEMEKRVSGKSQYLLGGKKSSRKKDI
B4: Isoleucine-tRNA ligase, mitochondrial (enzyme, UniProt Q5ZKA2 28-1000)
chain: ASEANSRRPAEESRQDSQYRDTVLLPHSRFAAQLPGRLQPDTELETQQKSGFLELYSWQRQRKAKQEFCLHDGPPYANGDPHVGHALNKILKDITNRFHMMRGYKVHYVPGWDCHGLPIELKALSEVKGAENLSPVEIRQKAKEFAERAIEKQKAAFIRWGIMADWANCYRTFDPKYEANQLRVFHKMYDKGFIYQDYKPVFWSPSAKTALAEAELEYNEQHVSRSVYMKFPLLKSPPKLASVIDGSSPASVLVWTTQPWTVPANQAVCYMPDAEYSVVKCATTGEHLILAADRVESTAAVLDTQFEVISTCKGVDLADGSCAHPTIAGRVSPLLPANHVTMTKGTGLVHTAPAHGMEDYNVASHHQLPTECLVDESGHFTEAAGPELKNKNVLEEGNEAVIKMLQAAGSLLKEEKYVHSYPYDWRTKKPMIIRASKQWFVNTANVKATAQEALKKVKIIPTSAVNRMLEMLDRRTFWCISRQRCWGVPIPVFYQKDTGESLINSETIADVIKIVEQQGTDAWWTLPIEQLLSKEAVAKAGGHNVLDYVKGQDVLDIWFDSGTSWAHVLEGAEQRADVYLEGKDQLGGWFQSSLLTSVATRKKAPYKTLVVHGFTLGEKGEKMSKSIGNVVDPDVVINGGDDHTKDPPYGADVLRWWVAESNVFTEVLIGPVVLNAARDDINKLRNTLRFMLGNMAGFNPETDSIPPSEMYIVDQYMLHLLQDYGSKVTEAYKEYDYSKVVRLLQAFCSRNLSNFYFSIIKDRLYCEEEKDPKRRSCQTVLAEALDVVVRSFAPILPHLAEEVFQHLPYKKDSEGVFRTGWINASSGWKKPGIEEAIEGACAMRDSFLGSISGKNALEYEVIIVIEPGLLFELMEALQAEESSRVSQLNEIMMASQTTLLSEIPKETPADANIVKGNFLINLEGGDIREESSYQVIALPTTKAKCPRCRRYTSDSSSTPCPRCLKVIAGKGST
B5: Protein phosphatase 1 regulatory subunit 21 (protein, UniProt Q5ZL12 1-779)
chain: MAATAELQGKYQKLAQEYSKLRAQNQVLKKGVVDEQANSASLKEQLKMKDQSLRKLQQEMDSLTFRNQQLAKRVELLQDELSLSETRGKKNKKSAESSSQLSQEQKSVFNEDLQKKIEENERLHILYFEADEQHKRLEAELRTKLEVLESDAAQHQAVVDSLTRKYTDTIEKLQNDKSKLEIKSQTLEREAKDCRLRTEECQQQLKNLQAALGSRLEESLCIINEKVPFNDTRSNRYNALNVPLHNRRYQLKLRDLAGQALSFVQEIVTALLNFHTYTEQKAQIFPIDSATDTISPLNQKFSQYLHENAFYVRPLEEGMLQLFESITEDTVTVLETAVKLKAFSEHLASYLCFLRKILPYQLKSLEEECESSLCTAALKARNMELHRDMKRLTAIFEKLHTYVSLLALPSTKPEGLLRTNYSLVFTNIAASLHGSHDILKDISKHYSQKATLEQDVPTATQKLVTTNDCILSSILSLTNGVGKIASFFSNNLDHFTSSLSYGPKGGTEFISPLSAECMLQYKKKAVAYMKSLKKPCADSVPYEEALANRRVLLSSTESREGLAQQVQQSLEKIAKLEQEKEHWMLEAQLAKIKLEKENQKLKNSLSGHLAETVQERSVLSNTAEQKEETTEKSQREPIKTTSLIGMLTITTDNEKVPDVESREDLIKKHYMARIAELTSHLQLADSKSVHFHAECRALAKRLSLAEKSKESLTEELKLASQSISRLQDELMTTKRSYEDQLSMMSDHLCSMNETLTKQREEIDTLKMTSKGNSKKNKTR
B6: Succinate dehydrogenase, mitochondrial (enzyme, UniProt Q9YHT2 39-290)
chain: AQTAAAATSRIKKFSIYRWDPDKPGDKPRMQTYEVDLNKCGPMVLDALIKIKNELDSTLTFRRSCREGICGSCAMNIAGGNTLACTKKIDPDLSKTTKIYPLPHMYVVKDLVPDLSNFYAQYKSIEPYLKKKDESKQGKEQYLQSIEDRQKLDGLYECILCACCSTSCPSYWWNGDKYLGPAVLMQAYRWMIDSRDDYTEERLAQLQDPFSLYRCHTIMNCTRTCPKGLNPGKAIAEIKKMMATYKEKAAAA
B7: Elongator complex protein 3 (protein, UniProt Q5ZHS1 1-546)
chain: MGQKRKDLSHAELMMMTIADIIKQLIEAHEQGKDVNLNKLKTKTSAKYGLSAQPRLVDIIAAVPPQHRKALVPKLKAKPIRTASGIAVVAVMCKPHRCPHINFTGNICVYCPGGPDSDFEYSTQSYTGYEPTSMRAIRARYDPYLQTRHRVEQLKQLGHSVDKVEFIVMGGTFMALPEDYRDYFIRNLHDALSGHTSNNVAEAVKYSERSLTKCVGITIETRPDYCLKRHLSDMLSYGCTRLEIGVQSVYEDVARDTNRGHTVKAVCESFHLAKDAGFKVVAHMMPDLPNMGLERDTDQFVEFFENPAFRPDGMKLYPTLVIRGTGLYELWKTGRYKSYPPSTLVDLVARILALVPPWTRVYRVQRDIPMPLVSSGVEHGNLRELALARMKDLGTQCRDVRTREVGIQEIHHKVRPYQIELIRRDYVANGGWETFLSYEDPEQDILVGLLRLRKCSEESFRPELKGGVSIVRELHVYGSVVPVSSRDPSKFQHQGFGMLLMEEAERIAKEEHGSWKIAVISGVGTRNYYRKIGYELEGPYMVKRLQ
B8: Monocarboxylate transporter 4 (protein, UniProt P57788 1-473)
chain: MGAVVVDDGPSGVKAPDGGWGWAVLFGCFIITGFSYAFPKAVSVFFKELIREFGVGYSDTAWISSILLAMLYGTGPLCSVCVNRFGCRPVMLVGGLFASMGMVIASFCTSIVQIYLTAGVITGLGLALNFQPSLIMLNRYFDKRRPLANGLSAAGSPVFLCALSPLGQILQHEYGWRGGFLILGGMLLNCCVCGALMRPLEPPKKSEATKEPAEKKAKKKLLDFSVFKDGGFVIYTLAASIMVLGLFVPPVFVVSYAKDLGYQDTKAAFLLTILGFIDIFARPICGMVAGLKWVRPRCVYLFSFAMIFNGFTDLMGSMSVDYGGLVVFCIFFGISYGMVGALQFEVLMAIVGTQKFSSAIGLVLLAEAMAVLIGPPSAGKLLDLTRRYMFVFIIAGIEVTTSALVLALGNFFCIKKKPAEPHTKEAAAEREELNKSEDKTPEDAKVDSIEVEQFLKDEPEKNGEVVTNPETCV
B9: Lamin-B1 (protein, UniProt P14731 1-584)
chain: MAAAVAPLSPQPRGAAASAALSPTRISRLQEKEELRQLNDRLAVYIDKVRSLETENSALQRRVSEREQVCGREISGLKELFETELADARKTLDDTARERAKLQIELGKLRAEHEQVLSSYAKKDSDLNAAQVKLREFEAALNAKEAALATALGDKRSQEEELEDLRDQIAQLEVSLAAAKKELADETLQKVDLENRCQSLIEDLEFRKNVYEEEIKETRRKHETRLVEVDSGRQIEYEYKLAQALKEIREQHDAQVKLYKEELEQTYSSKLENIRQSSEMHSCTANTVREELHESRMRIETLSSHIADIQKESRAWQDRVHELEDTLSKERENYRKILAENEREVAEMRNQMQQQFSDYEQLLDVKLALDMEISAYRKLLESEEERLRLSPGPSSRVTVSRASSSRSVRTTRGKRKRIDVEESEASSSVSISHSASATGNISIEEIDVDGKFIRLKNTSEQDQPMGGWEMIRKIGDTSASYRYTSRYVLKAGQTVTIWAANAGVTASPPTDLIWKNQNSWGTGEDVKVVLKNSQGEEVAQRSTVFKTTVNEGEEEEEEGEEEILEDVIHQQGSPRKPERSCVVM

target: IBDV VP2 protein (infectious bursal disease virus (IBDV)); test: affinity purification with mass spectrometry; lysate of DF-1 cells transfected with pcDNA-VP2 (lysis buffer 150 mM NaCl, 1% NP-40, 25 mM Tris, 5% glycerol) precipitated with the anti-VP2 monoclonal antibody 2H11 immobilised on agarose (coimmunoprecipitation crosslinking kit); 10% SDS-PAGE, silver stain; bands differing from the negative control excised and identified by mass spectrometry

Row | Binder | binding
1 | B1 | binds
2 | B2 | binds
3 | B3 | binds
4 | B4 | binds
5 | B5 | binds
6 | B6 | binds
7 | B7 | binds
8 | B8 | binds
9 | B9 | binds
